Measurements reported in PubChem BioAssay AID686943 (Drosophila RNAi Screening Center, 2013).
The screen tested about 23,000 reagents; this is an unselected part of those that have a named target and a result. 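Extra replicates exist only for a retested subset of genes; insulin dose and duration not given; both raised and lowered dpERK matter.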 The numbers tell different reagents against one gene apart. A plus sign joins genes that one reagent is predicted to hit. The record does not give: the amount of reagent, the time to read-out.

Aim: 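Search across the genome for regulators of signalling from receptor tyrosine kinase to ERK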 (primary screen)
System: Drosophila S2R+ haemocyte-like cells expressing YFP-tagged ERK (Rolled)
Knock-down reagent: long dsRNA against Drosophila genes
Conditions: insulin stimulation versus unstimulated cells; dose and duration not given
Measurement: 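Per-plate z-scores of phospho-ERK immunostaining normalised to YFP-tagged ERK, measured with and without insulin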
Scale: replicate 1, z-score of dpERK with insulin and replicate 2, z-score of dpERK with insulin: higher = more active ERK per ERK-YFP after insulin; replicate 1, z-score of dpERK under basal conditions: higher = more basal active ERK per ERK-YFP; replicate 1, z-score of ERK-YFP with insulin: higher = more YFP-tagged ERK signal

no.	target gene	reagent	replicate 1, z-score of dpERK with insulin	replicate 2, z-score of dpERK with insulin	replicate 1, z-score of dpERK under basal conditions	replicate 1, z-score of ERK-YFP with insulin
1	CG43861	1	-1	-0.91	-1.45	0.89
2	CG43861	2	0.07	-0.27	-0.4	-0.12
3	Etf-QO (Electron transfer flavoprotein-ubiquinone oxidoreductase)	1	-0.04	0.03	-0.54	0.51
4	CG4477	1	0.7	-0.2	0.21	0.29
5	CG8141	1	0.59	0.99	0.68	0.38
6	CG31176	1	-0.09	-0.16	-0.27	-0.63
7	CG31176	2	-0.26	0.11	-0.3	-0.4
8	CG32811	1	0.79	-0.04	-0.45	-0.23
9	CG6421	1	0.33	1.5	-0.4	1.72
10	CG42588	1	1	0.72	0.95	-0.47
11	CG42588	2	0.83	0.26	0.1	-1.32
12	Sema1a (Semaphorin 1a)	1	0.08	-0.4	-1.18	0.16
13	Ppox (Protoporphyrinogen oxidase)	1	-0.04	0.07	0.76	0.52
14	CG6961 + CG18259	1	0.45	0.29	0.81	-0.49
15	CG6961 + CG18259	2	0.6	-0.06	-0.91	-0.49
16	lncRNA:CR33218 (long non-coding RNA:CR33218)	1	-0.86	-0.33	-1.19	0.55
17	GckIII (Germinal centre kinase III)	1	-2.46	-1.58	1.96	-0.37
18	CG5079	1	-0.88	-2.27	-3.44	-1.88
19	smp-30 (Senescence marker protein-30)	1	-0.84	0.04	1.43	0.38
20	tin (tinman)	1	0.88	0.63	1.03	-0.15
21	tin (tinman)	2	-0.86	-1.14	-2.65	-0.99
22	Tdc2 (Tyrosine decarboxylase 2)	1	-0.91	-0.3	0.51	2.03
23	CG15611	1	0.39	1.95	-1.82	0.95
24	CG15611	2	-0.17	-0.41	0.1	-0.1
25	betaTub85D (beta-Tubulin at 85D)	1	0.35	-0.95	2.67	-1.85
26	CG7564	1	0.32	-1.6	2.28	-0.12
27	elav (embryonic lethal abnormal vision)	1	0.56	0.26	1.01	0.06
28	Sap130 (Sin3A-associated protein 130)	1	-0.01	1.34	-1.79	1.99
29	CG13392	1	-0.19	0.43	0.41	1.76
30	CG34328	1	0.24	0.39	0.5	0.26
31	Sxl (Sex lethal)	1	-0.15	0.96	1.04	1
32	Sxl (Sex lethal)	2	1.1	1.09	0.3	0.22
33	Sxl (Sex lethal)	3	-1.93	-3.04	-0.62	0.39
34	tws (twins)	1	1.42	0.63	0.09	-0.74
35	tws (twins)	2	-1.9	-1.05	-1.19	2.67
36	fs(1)K10 (female sterile (1) K10)	1	-0.99	-1.5	0.03	-0.1
37	CG1889	1	0.13	0.49	0.78	0.07
38	CG31103	1	-0.81	0.8	-0.33	-0.92
39	CG8788	1	0.47	0.8	-0.17	0.38
40	hog	1	-0.77	0.19	-0.12	-0.3
41	CG34386	1	-4.22	-3.54	-2.54	0.32
42	CG34386	2	-0.12	0.18	-0.17	0.44
43	CG10332 (retired record) + IM18	1	0.56	0.03	-1.05	0.44
44	HPS1 (Hermansky-Pudlak Syndrome 1)	1	0.34	0.33	0.36	1.06
45	babo (baboon)	1	0.07	0.72	0.47	-0.02
46	Sf3b5 (Splicing factor 3b subunit 5)	1	2.65	0.97	-0.17	-5.63
47	Sec61alpha (Sec61 alpha subunit)	1	-0.9	-3.43	-0.3	0.21
48	Targ1 (Terminal ADP-ribose protein glycohydrolase 1)	1	-0.52	-0.23	1.01	-0.35
49	CG18789	1	0.8	-0.82	-0.68	-0.21
50	Prosbeta5 (Proteasome beta5 subunit)	1	-1.48	-3.35	-1.8	-0.87
51	CG15394	1	0.39	0.58	-0.59	-0.2
52	SmD1 (Small ribonucleoprotein particle protein SmD1)	1	1.11	1.1	2.4	-2.11
53	CG30177	1	1.02	1.04	0.41	0.15
54	Mlc1 (Myosin alkali light chain 1)	1	0.06	0.02	-0.5	-0.1
55	lncRNA:CR43421 (long non-coding RNA:CR43421)	1	0.99	-0.05	0.13	-0.14
56	CG10232	1	0.66	-0.17	-0.46	0.28
57	DIP-alpha (Dpr-interacting protein alpha)	1	0.47	1.19	1.54	-0.08
58	DIP-alpha (Dpr-interacting protein alpha)	2	0	-1.5	-2.01	0

Part of the list above, set out differently.
target gene	reagent	replicate 1, z-score of dpERK with insulin	replicate 2, z-score of dpERK with insulin	replicate 1, z-score of dpERK under basal conditions	replicate 1, z-score of ERK-YFP with insulin
hog	1	-0.77	0.19	-0.12	-0.3
CG34386	1	-4.22	-3.54	-2.54	0.32
CG34386	2	-0.12	0.18	-0.17	0.44
CG10332 (retired record) + IM18	1	0.56	0.03	-1.05	0.44
HPS1 (Hermansky-Pudlak Syndrome 1)	1	0.34	0.33	0.36	1.06
babo (baboon)	1	0.07	0.72	0.47	-0.02
